{
  "source": "patent US20060257904",
  "test_system": "Tau (isoform not stated in figure legend)",
  "assay": "binding assay",
  "conditions": "fibril formation of tau on RQT157 addition; purified recombinant protein; label: 32P internal; variant of RQ11+12",
  "note": "For at least one entry, the source does not settle the construct or the ends of the probe.",
  "data": [
    {"sequence": "GGGGUUUCGAACCGGAAUUUGAGGGAUGCCUAGGCAUCCCCCGUGCGUCCCUUUACGAGGGAUUGUCGACUCUAGAGGAUCCGGUACCUGAGGGAUGCCUAGGCAUCCCCGCGCGCCGGUUUCGGACCUCCAGUGCGUGUUACCGCACUGUCGACCC [RQT157]", "values": [
      {"measurement": "binding result", "result": "binds"}
    ]}
  ]
}
